Values quoted from earlier work in patent US20070292384A1, “Water soluble micelle-forming and biodegradable cyclotriphosphazene-taxol conjugate anticancer agent and preparation method thereof” (priority 2006, published 2007).

Settings: cited from earlier work

CC(=O)O[C@H]1C(=O)[C@@]2(C)[C@H]([C@H](OC(=O)c3ccccc3)[C@]3(O)C[C@H](OC(=O)[C@H](O)[C@@H](NC(=O)c4ccccc4)c4ccccc4)C(C)=C1C3(C)C)[C@]1(OC(C)=O)CO[C@@H]1C[C@@H]2O [Taxol (free), Taxol]
solubility in water: < 1 µg/mL
